Library screening results

A: 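Whole-cell assay for inhibitors of Mycobacterium tuberculosis growth, labelled Cornell in the record; the read-out is not stated. The concentration is filed as 10 mM, unlikely as a test dose, so the dose is not known. Higher means stronger inhibition (inferred from two other growth screens of the library). About 53,000 compounds were tested under these conditions; 1.7% (about 900) showed 50% or more at least once.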
B: 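Assay on Mycobacterium tuberculosis, filed only as a heat shock assay from Cornell; the read-out is not stated. The concentration is filed as 10 mM, unlikely as a test dose, so the dose is not known. The record gives no direction; compounds that gave an IC50 in retests scored well above the rest, so higher reads as stronger inhibition. About 69,000 compounds were tested under these conditions; 1.4% (about 930) showed 50% or more at least once.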

The filed quantity is “Percent Effect” (%).
The record does not define 0% and 100%; most values in the screen are far below 50% and negative numbers occur (in some assays of this library far below -100).
The compounds are a random part of those screened.
A dash means the value is not listed here; it may have been measured.

SMILES	A	B
O=C(O)C(F)(F)F.O=C(O)C(F)(F)F.[H][C@@]12C[C@@H](C(=O)NC)N(C(C)C)[C@]1([H])CN(c1ncccn1)C2	24.04%	-20.7%
Cc1ccccc1C(=O)NCc1ccc(N2CCNC(=O)C2)cc1	-	22.72%
CN(C)C1(CNC(=O)c2c(O)cc(Cl)cc2Cl)CCOCC1	-3.009%	-6.739%
CCCN(CCC)C(=O)c1sc(C)nc1C	-	0.5684%
Cc1nn(C)c(N2CCOCC2)c1CNC1CCN(C2CC2)CC1	-	-8.808%
CN(c1c(F)cccc1F)S(=O)(=O)c1cc2c(c(C(=O)O)c1)OCCO2	43.64%	-13.04%
NC(=O)c1ccc(S(=O)(=O)NC(=O)COc2ccc3c(c2)CCC3)cc1	8.819%	-8.19%
Cc1ncc(C(=O)NC2CCc3nccn3C2)c(C(C)C)n1 (stereo unspecified)	-	13.39%
Cc1cc(C)n2ncc(CN3C[C@@H](O)[C@H](Oc4ccccc4)C3)c2n1	0.3545%	1.68%
CCc1nc(CN2CCN(C(=O)c3cnccn3)CC2)cs1	6.532%	1.421%
CC(=O)N1CCC[C@H]1C(=O)NCCCN(C(C)C)S(C)(=O)=O	13.62%	10.74%
CCc1cc(C(=O)N2CC[C@@H](c3ccc4c(c3)OCO4)[C@H](O)C2)[nH]n1	-	5.003%
CC(C)c1nc(C2CCCN2CC(=O)Nc2ccc(Cl)cn2)no1 (stereo unspecified)	-	-5.606%
Cc1cccc(CN2CCN(C(=O)c3cc(C4CC4)[nH]n3)CC2)c1	63.11%	25.86%
Cc1nc2c(s1)C(N(C)C(=O)NCCCC(C)(C)CO)CCC2 (stereo unspecified)	-	9.551%
CCN1CCN(C(=O)CCC2CCN(C(C)CSC)CC2)CC1 (stereo unspecified)	-1.583%	-16.06%
CCO[C@H]1CO[C@@]2(CCCN(Cc3scnc3C)C2)C1.O=C(O)C(F)(F)F	-18.18%	-15.27%
COc1ccc(OCc2cc(C(=O)N3CCSCC3)n[nH]2)c(Cl)c1	54.8%	-2.559%
CC(C)CCCNC(=O)Nc1ccc(C(N)=O)c(Cl)c1	-	20.03%
Cc1ncsc1CCC(=O)NC1CCN(c2ccc(Cl)nn2)CC1	-10.61%	-10.35%
O=C(O)C(F)(F)F.O=C(O)C(F)(F)F.O=C(O)C(F)(F)F.[H][C@@]12CCCO[C@]1([H])[C@H](N(C)Cc1ccco1)CN(Cc1cccnc1)C2	-30.31%	-24.96%
CC(NC(=O)CCc1cccs1)c1nnc2n1CCC2 (stereo unspecified)	17.11%	1.14%
C[C@H](NC(=O)c1cnc(-c2ccccc2)nc1O)C(N)=O	-	24.42%
CCOCc1cc(CNC2CCCc3c2cnn3CC)ccc1OC (stereo unspecified)	-	31.5%
[H][C@]12CNC[C@@]1(C(=O)NCCc1ncccc1C)CN(S(C)(=O)=O)C2	-	-27.54%
O=S(=O)(Cc1c(F)cccc1Cl)Cc1nnnn1C1CC1	-41.59%	19.08%
CC(=O)C1(c2ccccc2)CCN(C(=O)c2ccn3nnnc3c2)CC1	19.22%	3.281%
O=C(C1NCCc2[nH]cnc21)N1CCC2(C=Cc3ccccc32)CC1 (stereo unspecified)	-7.644%	4.298%
CN(Cc1ccc(F)cc1F)Cc1cc2c(cc1Br)OCCO2	4.711%	-24.69%
COC(=O)C1CN(CC(=O)Nc2cc(F)ccc2F)c2ccccc21 (stereo unspecified)	24.46%	-2.432%
CCN1CCCC(C)(C(=O)NCc2nncn2CCc2ccccc2)C1 (stereo unspecified)	17.18%	-1.782%
NC(=O)C1CCN(C(=O)NC2CCc3cc(F)ccc32)CC1 (stereo unspecified)	-2.777%	-14.93%
CCc1nnc2n1CCN(C(=O)CN(CC)CC)C2	-47.36%	-20.2%
Cc1ccsc1C(=O)NC1CCS(=O)(=O)c2ccccc21 (stereo unspecified)	-18.75%	-45.37%
O=C(NCC1(O)COCCN(Cc2cccc(O)c2)C1)c1cscn1 (stereo unspecified)	-9.313%	22.85%
Cn1cnc2cc(CCC(=O)Nc3nc[nH]n3)ccc21	32.94%	8.41%
CN(C)c1ccc(C(=O)N2Cc3cnc(C(C)(C)C)nc3C2)cc1	24.75%	-12%
Cc1cc(C)n(CC2CCCCN2CC(=O)N(C)Cc2ccco2)n1 (stereo unspecified)	-67.07%	16.67%
CN(C)Cc1nnc2n1CCN(Cc1cccnc1)C2	-9.2%	-15.01%
O=C1CCC2(CCN(Cc3ccsc3)CC2)N1Cc1ccccc1	26.5%	-13.83%
CN1C(=O)C2(CCCN(C(=O)c3ccc(=O)n(C)n3)C2)c2ccccc21 (stereo unspecified)	-5.841%	11.07%
COCCN1CCC2(CC1)CC(COC)N(c1ncccn1)C2.O=C(O)C(F)(F)F.O=C(O)C(F)(F)F (stereo unspecified)	-13.9%	-20.64%
C[C@@H](NC(=O)c1cccnc1)c1onc(-c2ccccc2)c1C(=O)O	-1.935%	-10.07%
CCN(Cc1cccc2c1OCO2)C(=O)NC1CC1	20.72%	7.765%
O=C(COc1coc(CN2CCCC2)cc1=O)Nc1ccc(Cl)c(Cl)c1	22.01%	3.77%
CC(C)CC(c1nc(-c2cnn(C)c2)no1)N1CCCCC1=O (stereo unspecified)	7.488%	17%
N#Cc1ccc(OCC(=O)N2CCCC(n3cccn3)C2)cc1 (stereo unspecified)	26.74%	18.65%
O=C(O)c1ccc2c(c1)C1(CCCCC1)CN2C(=O)c1ccnnc1	19.93%	-1.178%
O=C(c1cccc(Cl)c1)C1CCCN(c2nnc(C3CCC3)o2)C1 (stereo unspecified)	-	6.498%
CN(C)C(=O)CN1CCOCC2(C1)CN(c1ncccn1)CCO2.O=C(O)C(F)(F)F (stereo unspecified)	-12.25%	-21.69%
O=C1CN(Cc2ccc(-c3ccccc3C(=O)O)cc2)CCN1	-	-27.46%
[H][C@@]12C[C@H](C(=O)N(C)C)CN(Cc3ccccn3)[C@]1([H])CCO2	21.28%	3.468%
Cc1c[nH]cc1C(=O)N1CCN(CCc2cccs2)CC1	20.55%	13.81%
COc1cc(C)c(NC(=O)CCn2cccc2)cc1OC	2.944%	2.703%
Cc1ccc(C(=O)NCc2ccccc2S(=O)(=O)N(C)CCO)cc1F	16.11%	7.315%
CCS(=O)(=O)N1C[C@@H](O)[C@H](N(C)Cc2ccc(F)cc2)C1	17.69%	-0.4639%
Cn1cnnc1CCNC(=O)c1ccccc1OC1CCC1	9.166%	-1.819%
Cc1ccc(C(=O)Nc2nnc(CC(C)C)s2)c(-n2cnnn2)c1C	-23.56%	-7.26%
O=C(Nc1ccnn1C1CCCC1)c1ccc(NC2CC2)nc1	16.19%	16.82%
N#Cc1ccc(CNC(=O)NC2CCN(CC(F)(F)F)C2)cc1 (stereo unspecified)	-	18.15%
c1ccc2sc(CN3CCOC(Cn4cccn4)C3)nc2c1 (stereo unspecified)	-14.08%	6.912%
CCn1cnnc1CNC(=O)N1CCCCCC1	-	7.039%
CCNC(=O)c1cnc(Cc2ccc(F)cc2)s1	25.32%	15.9%
COc1ccccc1CNC(=O)c1ccccc1-n1cnc(CN)c1	7.421%	-11.03%
COCC(=O)Nc1cnn(COc2ccc(F)cc2Cl)c1	6.36%	15.18%
COc1ccc(NC(=O)CSc2nc(C)cc(C)n2)cn1	14.57%	26.15%
CCN(CC)CCNC(=O)CCc1c(C)nn(-c2ccccc2Br)c1C	6.506%	-10.39%

The last 4 entries again:

Result for COc1ccccc1CNC(=O)c1ccccc1-n1cnc(CN)c1 was A: 7.421%; B: -11.03%.
Result for COCC(=O)Nc1cnn(COc2ccc(F)cc2Cl)c1 was A: 6.36%; B: 15.18%.
Result for COc1ccc(NC(=O)CSc2nc(C)cc(C)n2)cn1 was A: 14.57%; B: 26.15%.
Result for CCN(CC)CCNC(=O)CCc1c(C)nn(-c2ccccc2Br)c1C was A: 6.506%; B: -10.39%.

Source: ChEMBL document CHEMBL3988442, “University of Dundee, Small-Polar-MMV Screening Library” (2021).